In paper PMC9647036:
These are yes or no findings as the source states them, for the method shown.

Chains of the proteins cited; added tags and fusions are not shown. Residues count along the entry.
UniProt O97302, residues 720-934: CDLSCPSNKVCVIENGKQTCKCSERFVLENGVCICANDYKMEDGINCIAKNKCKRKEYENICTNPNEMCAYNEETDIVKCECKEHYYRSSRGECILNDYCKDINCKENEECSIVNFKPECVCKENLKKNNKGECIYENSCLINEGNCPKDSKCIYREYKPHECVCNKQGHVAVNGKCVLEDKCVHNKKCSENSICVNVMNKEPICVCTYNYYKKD

Molecular target: PfRipr5 (protein fragment of PfRipr, aa C720-D934) (Plasmodium falciparum) (UniProt O97302)
Assay: SEC + other: dynamic light scattering; HPLC-SEC on XBridge BEH 125 Å column, 16 mM sodium phosphate, 250 mM NaCl, pH 8.0, 20 micrograms injected; DLS on Spectro Light 600; both purified

PfRipr5 (protein fragment of PfRipr, aa C720-D934) (from UniProt O97302 720-934) (domain or fragment)
binding: no binding
